In publication PMC7862700 one finds binding signal data, which are given here for 38 sequences.

The entries are a selection whose mix differs from that of the whole data set. At the low end of the ranking the order means little.

In the assay the target is T1, ETV2 (UniProt O00321).
T1 sequence: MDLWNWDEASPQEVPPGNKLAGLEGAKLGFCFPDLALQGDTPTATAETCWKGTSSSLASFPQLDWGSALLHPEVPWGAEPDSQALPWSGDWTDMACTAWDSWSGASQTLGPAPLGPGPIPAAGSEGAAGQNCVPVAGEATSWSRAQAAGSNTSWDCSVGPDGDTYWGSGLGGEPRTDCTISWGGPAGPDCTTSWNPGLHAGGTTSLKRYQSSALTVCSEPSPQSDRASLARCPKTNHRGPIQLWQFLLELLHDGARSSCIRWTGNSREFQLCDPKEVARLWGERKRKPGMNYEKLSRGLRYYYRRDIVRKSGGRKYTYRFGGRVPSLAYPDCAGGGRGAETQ
In words: DAPPL (digital affinity profiling via proximity ligation, sequencing). As to conditions: 10 mM Tris-HCl pH 7.5, 50 mM NaCl, 1 mM DTT, 4% glycerol, room temperature, 30 min; GST-TFs on glutathione beads, 16-mer random dsDNA library, 0.1% …; high values mean tight binding; double strand, one strand shown; scale: fold enrichment (6-mer frequency, TF over GST control).
As to TATGTA, the binding signal came out at 1.23.

On to TTGCCT, for which the binding signal came to 1.19.

On to TTTTGC, for which the binding signal is 1.53.

Sequence GAATCT displayed a binding signal of 1.2.

In turn, AGAAAT displayed a binding signal of 1.19.

In turn, ATAACT came in with a binding signal of 1.39.

In turn, TCGCTT showed a binding signal of 1.05.

Turning to GAATAA, the binding signal turned out to be 1.13.

With GCCTCG, the binding signal was found to be 1.06.

In the case of CTTACG, the binding signal came out at 1.1.

Turning to ACTAAA, the binding signal is 1.24.

TTCCCT yielded a binding signal of 1.62.

Sequence TGCTGC showed a binding signal of 0.942.

The sequence ATGACT yielded a binding signal of 1.41.

In turn, CGATTG came in with a binding signal of 1.08.

In turn, TCGCTA returned a binding signal of 1.24.

Sequence TTCCTT gave a binding signal of 1.79.

For the sequence ATTTGA, the binding signal came to 1.16.

Turning to TCTGGG, the binding signal was 1.19.

In turn, GCACTT returned a binding signal of 1.66.

TAGCGG gave a binding signal of 1.19.

Consider TATGGT, for which the binding signal is 1.

Regarding ATACAG, the binding signal was 1.24.

In turn, CTGACT displayed a binding signal of 1.48.

TGCCAA came in with a binding signal of 0.956.

The sequence ACATGG yielded a binding signal of 0.976.

ATAAAT returned a binding signal of 1.13.

CCGGAA returned a binding signal of 5.1.

Take CGTCTA: the binding signal worked out at 1.29.

In turn, GCCAAT displayed a binding signal of 0.98.

With TCTAAA, the binding signal came to 1.27.

TGTGAC showed a binding signal of 1.09.

Turning to TTGATG, the binding signal is 1.53.

AAGAAT had a binding signal of 1.12.

Take TCCCGC: the binding signal was found to be 1.31.

In turn, GATTAT yielded a binding signal of 1.07.

Take TGCTAC: the binding signal turned out to be 1.24.

As for TACTTG, the binding signal was 1.46.
